Measured values: patent publication US20120316200A1, “PYRIDONE DERIVATIVES” (Merck Sharp & Dohme Corp., priority 2010, published 2012)
Some of these results come from one statement about several compounds together.

Amino acid sequences for entries named in this document (tags omitted). A change or cut given only in a name is not applied to a line headed by its entry.
UniProt Q99705: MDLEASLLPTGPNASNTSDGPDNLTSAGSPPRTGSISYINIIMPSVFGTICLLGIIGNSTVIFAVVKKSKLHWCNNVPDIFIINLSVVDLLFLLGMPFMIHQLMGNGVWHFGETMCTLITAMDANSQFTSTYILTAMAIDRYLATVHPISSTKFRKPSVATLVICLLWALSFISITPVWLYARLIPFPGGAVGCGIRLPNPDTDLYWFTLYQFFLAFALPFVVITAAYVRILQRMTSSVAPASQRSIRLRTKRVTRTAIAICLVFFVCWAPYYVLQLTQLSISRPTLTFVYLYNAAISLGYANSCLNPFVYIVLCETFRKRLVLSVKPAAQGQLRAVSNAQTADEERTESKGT

Each compound was assayed against T1, human MCH-1R (Homo sapiens, UniProt Q99705) (assay: MCH-1R binding inhibition ([125I]MCH binding to membranes of MCH-1R expression CHO-K1 cells)). Conditions: 50 pM [125I]MCH, membranes of CHO-K1 cells expressing human MCH-1R, 25° C., one hour, pH 7.4; read-out: IC50 (50% inhibition concentration for specific [125I]MCH binding).
T1 construct: expressed in transfected cells; host or cells: CHO-K1 (American Type Culture Collection)
Protocol: A cDNA sequence encoding human MCH-1R [FEBS Letters, Vol. 398, 253 (1996); Biochimica et Biophisica Acta, Vol. 1401, 216 (1998)] was cloned to a plasmid vector pEF/myc/cyto (manufactured by Invitrogen). The obtained expression vector was transfected to a host cell CHO-K1 (American Type Culture Collection) using Lipofectamine Plus reagent (manufactured by Life Technology) to provide MCH-1R expression cells.
Membrane samples prepared from the MCH-1R expression cells were incubated with a test compound and 50 pM [^125I]MCH (manufactured by NEN) in an assay buffer (50 mM Tris buffer containing 10 mM magnesium chloride, 2 mM ethylenediamine tetraacetate, 0.01% bacitracin, and 0.2% bovine serum albumin; pH 7.4) at 25° C. for one hour, followed by filtration through a glass filter GF/C (manufactured by Wattman). The glass filter was washed with 50 mM Tris buffer (pH 7.4) containing 10 mM magnesium chloride, 2 mM ethylenediamine tetraacetate, and 0.04% Tween-20, and then the radioactivity on the glass filter was determined. Non-specific binding was measured in the presence of 1 μM human MCH, and, with respect to each test compound, 50% inhibition concentration (IC50 value) for specific [^125I]MCH binding was determined.

IC50, < 500 nM:
O=c1cc(OCc2ccc(F)cc2)ccn1-c1ccc(OCC2(O)CC2)c(F)c1 [Example 28, 4-[(4-fluorobenzyl)oxy]-1-{3-fluoro-4-[(1-hydroxycyclopropyl)methoxy]phenyl}pyridin-2(1H)-one]
COc1cc(-n2ccc(OCc3ccc(F)c(F)c3)cc2=O)ccc1OC[C@H](O)C1CC1 [Example 31, 1-{4-[(2R)-2-cyclopropyl-2-hydroxyethoxy]-3-methoxyphenyl}-4-[(3,4-difluorobenzyl)oxy]pyridin-2(1H)-one]
COc1cc(-n2ccc(OCc3ccc(Cl)cn3)cc2=O)ccc1OC[C@H](O)C1CC1 [Example 21, 4-[(5-chloropyridin-2-yl)methoxy]-1-{4-[(2R)-2-cyclopropyl-2-hydroxyethoxy]-3-methoxyphenyl}pyridin-2(1H)-one]
CC(C)(O)c1ccc2cc(-n3ccc(OCc4ccc(F)cc4)cc3=O)ccc2n1 [Example 7, 4-(4-Fluorobenzyloxy)-1-[2-(2-hydroxypropan-2-yl)quinolin-6-yl]pyridin-2-(1H)-one]
O=c1cc(OCc2ccc(F)cc2)ccn1-c1ccc(OCC2(O)CC2)c(Cl)c1 [Example 27, 1-{3-chloro-4-[(1-hydroxycyclopropyl)methoxy]phenyl}-4-[(4-fluorobenzyl)oxy]pyridin-2(1H)-one]
O=c1cc(OCc2ccc(F)cc2)ccn1-c1ccc(OCC(O)C2CC2)cc1 (racemic) [Example 3, 1-[4-(2-Cyclopropyl-2-hydroxyethoxy)phenyl]-4-[(4-fluorobenzyl)oxy]pyridin-2(1H)-one]
COc1cc(-n2ccc(OCc3ccc(F)cc3)cc2=O)ccc1OCC(O)C1CC1 (racemic) [Example 4, 1-[4-(2-Cyclopropyl-2-hydroxyethoxy)-3-methoxyphenyl]-4-[(4-fluorobenzyl)oxy]pyridin-2(1H)-one]
COc1cc(-n2ccc(OCc3ccc(F)cc3)cc2=O)ccc1OCC1(O)CC1 [Example 29, 4-[(4-fluorobenzyl)oxy]-1-{4-[(1-hydroxycyclopropyl)methoxy]-3-methoxyphenyl}pyridin-2(1H)-one]
COc1cc(-n2ccc(OCc3ccc(F)cc3)cc2=O)ccc1OCC(C)(C)O [Example 1, 4-[(4-Fluorobenzyl)oxy]-1-[4-(2-hydroxy-2-methylpropoxy)-3-methoxyphenyl]pyridin-2(1H)-one]
O=c1cc(OCc2ccc(F)c(F)c2)ccn1-c1ccc(OCC(O)C2CC2)cc1 (stereo not shown) [Example 16, 1-[4-(2-cyclopropyl-2-hydroxyethoxy)phenyl]-4-[(3,4-difluorobenzyl)oxy]pyridin-2(1H)-one]
COC(=O)COc1ccc(-n2ccc(OCc3ccc(F)cc3)cc2=O)cc1F [Example 17, methyl (2-fluoro-4-{4-[(4-fluorobenzyl)oxy]-2-oxopyridin-1(2H)-yl}phenoxy)acetate]
CC(C)(O)COc1ccc(-n2ccc(OCc3ccc(F)cc3)cc2=O)cc1Cl [Example 10, 1-[3-chloro-4-(2-hydroxy-2-methylpropoxy)phenyl]-4-[(4-fluorobenzyl)oxy]pyridin-2(1H)-one]
CC(C)(CO)COc1ccc(-n2ccc(OCc3ccc(F)cc3)cc2=O)cc1 [Example 6, 4-[(4-Fluorobenzyl)oxy]-1-[4-(3-hydroxy-2,2-dimethylpropoxy)phenyl]pyridin-2(1H)-one]
O=c1cc(OCc2ccc(F)c(F)c2)ccn1-c1ccc(OC[C@H](O)C2CC2)cc1 [Example 23, 1-{4-[(2R)-2-cyclopropyl-2-hydroxyethoxy]phenyl}-4-[(3,4-difluorobenzyl)oxy]pyridin-2(1H)-one]
Cc1cc(-n2ccc(OCc3ccc(F)cc3)cc2=O)ccc1OCC(=O)OC(C)C [Example 18, propan-2-yl (4-{4-[(4-fluorobenzyl)oxy]-2-oxopyridin-1(2H)-yl}-2-methylphenoxy)acetate]
CC(C)(O)COc1ccc(-n2ccc(OCc3ccc(F)cc3)cc2=O)cc1 [Example 11, 4-[(4-fluorobenzyl)oxy]-1-[4-(2-hydroxy-2-methylpropoxy)phenyl]pyridin-2(1H)-one]
O=c1cc(OCc2ccc(Cl)cn2)ccn1-c1ccc(OCC(O)C2CC2)cc1 (stereo not shown) [Example 15, 4-[(5-chloropyridin-2-yl)methoxy]-1-[4-(2-cyclopropyl-2-hydroxyethoxy)phenyl]pyridin-2(1H)-one]
COc1cc(-n2ccc(OCc3ccc(F)c(F)c3)cc2=O)ccc1OC[C@@H](O)C1CC1 [Example 30, 1-{4-[(2S)-2-cyclopropyl-2-hydroxyethoxy]-3-methoxyphenyl}-4-[(3,4-difluorobenzyl)oxy]pyridin-2(1H)-one]
O=c1cc(OCc2ccc(Cl)cn2)ccn1-c1ccc(OC[C@H](O)C2CC2)cc1 [Example 22]
COC(=O)COc1ccc(-n2ccc(OCc3ccc(F)cc3)cc2=O)cc1OC [Example 20, methyl (4-{4-[(4-fluorobenzyl)oxy]-2-oxopyridin-1(2H)-yl}-2-methoxyphenoxy)acetate]
COc1cc(-n2ccc(OCc3ccc(Cl)cn3)cc2=O)ccc1OC[C@@H](O)C1CC1 [Example 24, 4-[(5-chloropyridin-2-yl)methoxy]-1-{4-[(2S)-2-cyclopropyl-2-hydroxyethoxy]-3-methoxyphenyl}pyridin-2(1H)-one]
Cc1cc(-n2ccc(OCc3ccc(F)cc3)cc2=O)ccc1OCC(C)(C)O [Example 2, 4-[(4-Fluorobenzyloxy)]-1-[4-(2-hydroxy-2-methylpropoxy)-3-methylphenyl]pyridin-2(1H)-one]
Cc1cc(-n2ccc(OCc3ccc(F)cc3)cc2=O)ccc1OCC1(O)CC1 [Example 5, 4-[(4-Fluorobenzyl)oxy]-1-{4-[(1-hydroxycyclopropyl)methoxy]-3-methylphenyl}pyridin-2(1H)-one]
O=c1cc(OCc2ccc(Cl)cn2)ccn1-c1ccc(OC[C@@H](O)C2CC2)cc1 [Example 26, 4-[(5-chloropyridin-2-yl)methoxy]-1-{4-[(2S)-2-cyclopropyl-2-hydroxyethoxy]phenyl}pyridin-2(1H)-one]
O=c1cc(OCc2ccc(F)c(F)c2)ccn1-c1ccc(OC[C@@H](O)C2CC2)cc1 [Example 25, 1-{4-[(2S)-2-cyclopropyl-2-hydroxyethoxy]phenyl}-4-[(3,4-difluorobenzyl)oxy]pyridin-2(1H)-one]
COc1cc(-n2ccc(OCc3ccc(Cl)cn3)cc2=O)ccc1OCC(O)C1CC1 (stereo not shown) [Example 14, 4-[(5-chloropyridin-2-yl)methoxy]-1-[4-(2-cyclopropyl-2-hydroxyethoxy)-3-methoxyphenyl]pyridin-2(1H)-one]
COc1cc(-n2ccc(OCc3ccc(F)cc3)cc2=O)ccc1OCCC(C)(C)O [Example 8, 4-(4-Fluorobenzyloxy)-1-[4-(3-hydroxy-3-methylbutoxy)-3-methoxyphenyl]pyridin-2-(1H)-one]
CC(C)(O)COc1ccc(-n2ccc(OCc3ccc(F)cc3)cc2=O)cc1F [Example 12, 4-[(4-fluorobenzyl)oxy]-1-[3-fluoro-4-(2-hydroxy-2-methylpropoxy)phenyl]pyridin-2(1H)-one]
CC(C)(O)CCOc1ccc(-n2ccc(OCc3ccc(F)cc3)cc2=O)cc1 [Example 9, 4-[(4-Fluorobenzyl)oxy]-1-[4-(3-hydroxy-3-methylbutoxy)phenyl]pyridin-2 (1H)-one]
COC(=O)COc1ccc(-n2ccc(OCc3ccc(F)cc3)cc2=O)cc1C [Example 19, methyl (4-{4-[(4-fluorobenzyl)oxy]-2-oxopyridin-1(2H)-yl}-2-methylphenoxy)acetate]
COc1cc(-n2ccc(OCc3ccc(F)cc3)cc2=O)ccc1OCC(C)(C)CO [Example 13, 4-[(4-fluorobenzyl)oxy]-1-[4-(3-hydroxy-2,2-dimethylpropoxy)-3-methoxyphenyl]pyridin-2(1H)-one]
